Patent publication US20100316648A1 (published 2010)
These are yes or no findings as the source states them, for the method shown. Some entries that bind do so weakly or less than the wild type.

Amino acid sequences for entries named in this document (tags omitted). Residues count along the entry.
UniProt P00747, residues 461-809: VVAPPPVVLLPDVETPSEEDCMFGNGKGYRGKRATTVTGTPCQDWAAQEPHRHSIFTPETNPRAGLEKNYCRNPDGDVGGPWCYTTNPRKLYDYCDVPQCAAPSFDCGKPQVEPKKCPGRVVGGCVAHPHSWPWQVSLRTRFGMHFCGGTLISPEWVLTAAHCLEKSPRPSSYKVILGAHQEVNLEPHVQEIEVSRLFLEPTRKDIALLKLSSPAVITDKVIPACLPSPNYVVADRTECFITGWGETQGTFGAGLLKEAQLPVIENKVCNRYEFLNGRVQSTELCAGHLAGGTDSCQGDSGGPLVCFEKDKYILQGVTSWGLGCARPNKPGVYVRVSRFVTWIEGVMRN

Target: T1, Plg-RKT carboxyl-terminal peptide … (SEQ ID NO: 33) (mouse)
T1 sequence (peptide, coupled to bovine serum albumin (BSA) and coated on microtiter wells): CEQSKLFSDK
Experiment: competition ELISA against biotinylated plasminogen on immobilized peptide

Substance: plasminogen fragment K5-PD (from UniProt P00747 461-809)
- binding: binds
